Values from PubChem BioAssay AID1259308 (NCATS, 2017).
The whole screen tested about 59,000 reagents; below is a part drawn at random. Over the whole deposit, about 1,510 (2.6%) got an active call. 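Calls use total luciferase alone and ignore viability, so some active siRNAs may act by altering cell number.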 The numbers tell different reagents against one gene apart. Not all columns of the deposit are shown.

Assay: 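Knock-downs that increase output of a recombinant reporter protein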 (primary screen)
System: human HEK293 embryonic kidney cells stably expressing firefly luciferase (HEK-CMV-Luc2-Hygro)
Reagents: single siRNA against human genes, 0.8 pmol siRNA per well
Timing: 72 h
Read-out: 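Reporter luminescence and viable-cell signal on separate replicate plates, given as percent of non-targeting control and median/MAD z-scores, plus per-cell luciferase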
Reading the numbers: total luciferase, z-score and total luciferase, % of control: higher = more reporter protein produced
Rule for the call: 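An siRNA counts as active if its total luciferase robust z-score exceeds 3; genes with two or more such siRNAs out of three were retested with fresh siRNAs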
Meaning of the calls: active = raised luciferase; inactive = no rise

Against LHFPL6 #1, the entry reads total luciferase, z-score 0.655; total luciferase, % of control 94.9; inactive.
Against LHFPL6 #2, the values are total luciferase, z-score -1.19; total luciferase, % of control 58.3; inactive.
After knock-down of LHFPL6 #3 the results were total luciferase, z-score -0.46; total luciferase, % of control 72.7; inactive.
With knock-down of FAR1 #1, the record shows total luciferase, z-score -0.688; total luciferase, % of control 68.2; inactive.
For FAR1 #2, the values are total luciferase, z-score 0.899; total luciferase, % of control 99.8; inactive.
Knock-down of FAR1 #3 came out at: total luciferase, z-score -1.55; total luciferase, % of control 51.1; inactive.
With knock-down of SH2B2 #1, the screen gave total luciferase, z-score 0.418; total luciferase, % of control 90.2; inactive.
Against SH2B2 #2, the values are total luciferase, z-score -1.45; total luciferase, % of control 53.1; inactive.
Silencing of SH2B2 #3 resulted in: total luciferase, z-score -0.227; total luciferase, % of control 77.4; inactive.
For ROPN1B #1 the deposit lists total luciferase, z-score -0.419; total luciferase, % of control 73.6; inactive.
For ROPN1B #2, the entry reads total luciferase, z-score -0.332; total luciferase, % of control 75.3; inactive.
Depletion of ROPN1B #3 gave: total luciferase, z-score 2.23; total luciferase, % of control 126; inactive.
Against SPMAP2 #1 the deposit lists total luciferase, z-score 0.53; total luciferase, % of control 92.4; inactive.
Knock-down of SPMAP2 #2 gave: total luciferase, z-score -0.63; total luciferase, % of control 69.4; inactive.
For SPMAP2 #3, the values are total luciferase, z-score -1.02; total luciferase, % of control 61.6; inactive.
Against SLC27A2 #1, the values are total luciferase, z-score -0.158; total luciferase, % of control 78.7; inactive.
SLC27A2 #2 showed total luciferase, z-score 0.264; total luciferase, % of control 87.1; inactive.
SLC27A2 #3 gave total luciferase, z-score -0.435; total luciferase, % of control 73.2; inactive.
Depletion of BAZ2A #1 resulted in: total luciferase, z-score -0.577; total luciferase, % of control 70.4; inactive.
BAZ2A #2 scored total luciferase, z-score 2.72; total luciferase, % of control 136; inactive.
After knock-down of BAZ2A #3 the results were total luciferase, z-score 2.33; total luciferase, % of control 128; inactive.
Depletion of SBNO2 #1 gave: total luciferase, z-score 1.38; total luciferase, % of control 109; inactive.
Against SBNO2 #2 the deposit lists total luciferase, z-score -0.175; total luciferase, % of control 78.4; inactive.
After knock-down of SBNO2 #3 the results were total luciferase, z-score -0.443; total luciferase, % of control 73.1; inactive.
ZNF207 #1 gave total luciferase, z-score 3.71; total luciferase, % of control 156; active.
With knock-down of ZNF207 #2 the results were total luciferase, z-score 0.349; total luciferase, % of control 88.8; inactive.
Against ZNF207 #3, the entry reads total luciferase, z-score 2.92; total luciferase, % of control 140; inactive.
PRSS22 #1 scored total luciferase, z-score 0.411; total luciferase, % of control 90.1; inactive.
Knock-down of PRSS22 #2 came out at: total luciferase, z-score 0.795; total luciferase, % of control 97.7; inactive.
Against PRSS22 #3 the deposit lists total luciferase, z-score -0.5; total luciferase, % of control 72; inactive.
Knock-down of IFNGR2 #1 came out at: total luciferase, z-score 0.465; total luciferase, % of control 91.1; inactive.
Depletion of IFNGR2 #2 resulted in: total luciferase, z-score -0.313; total luciferase, % of control 75.7; inactive.
IFNGR2 #3 gave total luciferase, z-score 0.757; total luciferase, % of control 96.9; inactive.
EZR #1 gave total luciferase, z-score 0.619; total luciferase, % of control 94.2; inactive.
EZR #2 gave total luciferase, z-score -0.179; total luciferase, % of control 78.3; inactive.
Against EZR #3 the deposit lists total luciferase, z-score 0.443; total luciferase, % of control 90.7; inactive.
For GJA3 #1 the deposit lists total luciferase, z-score 0.0563; total luciferase, % of control 83; inactive.
For GJA3 #2, the values are total luciferase, z-score -0.903; total luciferase, % of control 63.9; inactive.
After knock-down of GJA3 #3, the record shows total luciferase, z-score -0.342; total luciferase, % of control 75.1; inactive.
Against ZNF853 #1 the deposit lists total luciferase, z-score 0.19; total luciferase, % of control 85.7; inactive.
For ZNF853 #2 the deposit lists total luciferase, z-score -1.71; total luciferase, % of control 47.8; inactive.
ZNF853 #3 gave total luciferase, z-score -0.329; total luciferase, % of control 75.3; inactive.

A stretch from the list above, for reference:
PRSS22 #2 | total luciferase, z-score = 0.795; total luciferase, % of control = 97.7; outcome = inactive
PRSS22 #3 | total luciferase, z-score = -0.5; total luciferase, % of control = 72; outcome = inactive
IFNGR2 #1 | total luciferase, z-score = 0.465; total luciferase, % of control = 91.1; outcome = inactive
